The data set relates to NK92 cells. The experiment in a line: Quantitation of protein in NK92 cells by western blotting. Also noted: species or system human. The following applies: for protein expressed by 1×10^6 NK92 cells: Figure 4, representative blot, per 1×10^6 NK92 cells; for Mean (ng)/10^6 cells / Mass (ng)/10^6 cells: per 10^6 NK92 cells; for Mean (ng)/10^6 cells: n = 3 (SAP, EAT-2), n = 2 (SHP-2).

The mark [1] stands for this setting: replicate 3 (third value printed).

B1: SAP: small SH2 domain containing adapter protein (protein, UniProt O60880 1-128, looked up)
SH2 domain-containing protein …: MDAVAVYHGKISRETGEKLLLATGLDGSYLLRDSESVPGVYCLCVLYHGYIYTYRVSQTETGSWSAETAPGVHKRYFRKIKNLISAFQKPDQGIVIPLQYPVEKKSSARSTQGTTGIREDPDVCLKAP
As for B1, the “protein expressed by 1×10^6 NK92 cells” value is 30 ng and the “Mean (ng)/10^6 cells” value amounted to 28 ng. The “SAP concentration higher than EAT-2” value (NK92 cells) is “four”. Besides, where the note is “replicate 2”, the “Mass (ng)/10^6 cells” value stood at 30 ng. Under setting [1], the “Mass (ng)/10^6 cells” value is reported as 33 ng.

B2: EAT-2: small SH2 domain containing adapter protein (protein)
chain: MDLPYYHGRLTKQDCETLLLKEGVDGNFLLRDSESIPGVLCLCVSFKNIVYTYRIFREKHGYYRIQTAEGSPKQVFPSLKELISKFEKPNQGMVVHLLKPIKRTSPSLRWRGLKLELETFVNSNSDYVDVLP
modifications: left off: His tag, end not stated, state not stated
notes: small SH2 domain containing adapter protein
Turning to B2, the “protein expressed by 1×10^6 NK92 cells” value stood at 7 ng and the “Mean (ng)/10^6 cells” value is listed as 7 ng. Moreover, the “cellular concentration compared with KD” value (NK92 cells) was “two orders of magnitude above the KD”. Moreover, where the note is “replicate 1 (first value)”, the “Mass (ng)/10^6 cells” value is reported as 5 ng. Also, where the note is “replicate 2”, the “Mass (ng)/10^6 cells” value is listed as 8 ng. For the same molecule, the “Mass (ng)/10^6 cells” value under setting [1] was 9 ng.

For the origin of these results see paper PMC3958483, “Fine Specificity and Molecular Competition in SLAM Family Receptor Signalling” (PLoS ONE, 2014).
